Data published in patent US20200000934.
The exact form of at least one protein or probe is not confirmed.

Tested on: VEGF
Assay: binding assay
Details: cap strand attached to NMOF (DBCO-azide); in vivo eye injection, 5 uL of 10 uM VEGF; Rhodamine 6G release rises in first 15 min, stable without VEGF; purified recombinant protein; label: Rhodamine 6G loaded in NMOF; variant of V7t1 anti-VEGF aptamer

“TGTGGGGGTGGACGGGCCGGGTAGA / TCTACCCGGCCC”: binds.
